According to PMC10501185:
No constants are given. Whether binding was seen depends on the method and setting. Some entries that bind do so weakly or less than the wild type. For some assays here: Sequences can lack the tags named with a protein.

Amino acid sequences for entries named in this document (tags omitted).
UniProt P14240: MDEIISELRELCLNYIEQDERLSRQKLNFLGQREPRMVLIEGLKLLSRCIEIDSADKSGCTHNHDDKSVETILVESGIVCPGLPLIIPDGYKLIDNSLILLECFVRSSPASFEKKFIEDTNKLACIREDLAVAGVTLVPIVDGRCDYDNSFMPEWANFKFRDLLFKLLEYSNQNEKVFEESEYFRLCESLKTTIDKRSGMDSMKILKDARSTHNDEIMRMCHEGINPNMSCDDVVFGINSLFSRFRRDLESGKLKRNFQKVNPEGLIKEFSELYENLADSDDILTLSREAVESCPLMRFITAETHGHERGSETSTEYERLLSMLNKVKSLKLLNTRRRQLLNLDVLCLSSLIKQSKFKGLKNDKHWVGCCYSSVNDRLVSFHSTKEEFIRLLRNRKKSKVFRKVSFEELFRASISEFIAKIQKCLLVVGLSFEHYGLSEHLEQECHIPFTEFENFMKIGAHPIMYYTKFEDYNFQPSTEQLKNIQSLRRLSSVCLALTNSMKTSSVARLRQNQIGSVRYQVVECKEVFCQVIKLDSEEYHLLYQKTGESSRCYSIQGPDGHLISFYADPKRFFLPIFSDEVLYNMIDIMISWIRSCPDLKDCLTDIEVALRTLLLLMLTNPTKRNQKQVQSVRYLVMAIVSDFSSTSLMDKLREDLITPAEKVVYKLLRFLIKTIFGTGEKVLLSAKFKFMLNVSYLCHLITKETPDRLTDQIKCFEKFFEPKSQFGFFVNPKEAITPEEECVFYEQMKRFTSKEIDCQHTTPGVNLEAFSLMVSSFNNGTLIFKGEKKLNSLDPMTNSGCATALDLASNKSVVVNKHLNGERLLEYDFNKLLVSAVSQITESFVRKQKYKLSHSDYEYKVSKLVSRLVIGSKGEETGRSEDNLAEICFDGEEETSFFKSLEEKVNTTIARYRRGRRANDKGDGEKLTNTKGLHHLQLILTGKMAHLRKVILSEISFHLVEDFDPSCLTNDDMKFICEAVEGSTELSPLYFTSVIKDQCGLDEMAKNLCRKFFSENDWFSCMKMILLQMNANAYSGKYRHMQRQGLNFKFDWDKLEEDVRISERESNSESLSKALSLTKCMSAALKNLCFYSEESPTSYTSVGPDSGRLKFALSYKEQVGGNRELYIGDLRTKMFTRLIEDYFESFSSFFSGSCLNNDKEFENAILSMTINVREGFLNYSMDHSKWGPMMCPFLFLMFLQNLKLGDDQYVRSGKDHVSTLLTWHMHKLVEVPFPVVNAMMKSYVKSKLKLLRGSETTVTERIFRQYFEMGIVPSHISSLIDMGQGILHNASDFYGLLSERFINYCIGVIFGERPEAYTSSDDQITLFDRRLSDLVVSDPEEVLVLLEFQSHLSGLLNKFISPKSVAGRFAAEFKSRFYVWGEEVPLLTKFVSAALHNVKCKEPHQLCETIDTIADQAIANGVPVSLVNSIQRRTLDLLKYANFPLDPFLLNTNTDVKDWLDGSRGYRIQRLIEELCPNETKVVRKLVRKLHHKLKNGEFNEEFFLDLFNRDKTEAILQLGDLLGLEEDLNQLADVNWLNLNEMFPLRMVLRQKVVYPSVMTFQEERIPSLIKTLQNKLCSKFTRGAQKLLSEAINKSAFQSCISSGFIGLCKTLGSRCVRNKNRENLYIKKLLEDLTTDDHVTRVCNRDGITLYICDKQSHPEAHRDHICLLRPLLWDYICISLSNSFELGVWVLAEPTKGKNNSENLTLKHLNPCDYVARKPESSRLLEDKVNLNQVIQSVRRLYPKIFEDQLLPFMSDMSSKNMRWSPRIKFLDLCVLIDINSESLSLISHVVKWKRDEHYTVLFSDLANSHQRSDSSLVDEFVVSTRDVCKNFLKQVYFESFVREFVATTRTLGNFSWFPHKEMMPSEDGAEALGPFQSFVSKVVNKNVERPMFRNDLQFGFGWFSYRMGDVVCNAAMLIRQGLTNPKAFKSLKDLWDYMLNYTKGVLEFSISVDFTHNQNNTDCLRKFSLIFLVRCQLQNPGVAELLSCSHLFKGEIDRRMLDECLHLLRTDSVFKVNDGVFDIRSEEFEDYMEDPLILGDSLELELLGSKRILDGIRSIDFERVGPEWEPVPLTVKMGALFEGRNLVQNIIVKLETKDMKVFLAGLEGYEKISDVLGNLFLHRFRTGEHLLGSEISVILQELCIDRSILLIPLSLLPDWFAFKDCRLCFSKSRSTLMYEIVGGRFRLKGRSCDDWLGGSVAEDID

Key:
[1] = target: T1, GST tagged LCMV-Z (wild type) (Lymphocytic choriomeningitis virus (LCMV)) (UniProt P18541); test: pull-down; both purified
T1 sequence: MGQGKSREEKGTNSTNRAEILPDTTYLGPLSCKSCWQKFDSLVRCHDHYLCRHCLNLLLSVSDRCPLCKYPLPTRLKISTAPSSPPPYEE

[2] = target: T2, Lymphocytic choriomeningitis virus RING finger Z matrix protein (Lymphocytic choriomeningitis virus (LCMV)) (UniProt P18541); test: cryo-EM structure; both purified
T2 sequence: T1 sequence

Lymphocytic choriomeningitis virus large polymerase (L) (from UniProt P14240 1-2210) (enzyme)
binding [1]: binds
binding [2]: binds
